# Laboratory results from PubChem BioAssay AID445 (National Center for Advancing Translational Sciences (NCATS), 2006).
# This is one part of the list. The main result of the screen is listed elsewhere. These columns were measured beside it and carry no call. Most of these compounds were active or inconclusive in the main read-out, so they are no random draw. Potencies come from curve fits of mixed quality, noted in brackets.
# Assay: IkB Signaling
# Settings: ABC-DLBCL IkBa-CBG/CBR dual luciferase ratio (green luciferase fused to IkBa over red control in OCI-Ly3 lymphoma cells), 4 h
# Summary of the method: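 In this assay, an IκBα–CBG68 fusion accumulates when IKK-driven degradation is blocked; native CBR normalizes for cell number. OCI-Ly3 cells were treated 4 h with compound and doxycycline, then green and red light read after Chroma-Glo addition.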
# [1] = measured here: control luc red channel unless noted
smiles,measurement,setting,value
CC(C)Cn1cc(NC(=O)NCc2ccccc2)c2ccccc2c1=O,AC50,[1],"0.794 µM [rising, full curve, poor fit]"
Cc1nc2nc(SCC(=O)Nc3cccc(Cl)c3)nn2c(C)c1Cc1ccccc1,AC50,[1],"12.6 µM [falling, partial curve]"
CN(C(=O)CSc1nc2ccc(NC(=O)c3ccccc3F)cc2s1)c1ccccc1,AC50,[1],"10 µM [falling, partial curve]"
CCCCn1cc(S(=O)(=O)c2ccc(OCC)cc2)c(=O)c2cc(OC)c(OC)cc21,AC50,[1],"31.6 µM [falling, single point]"
Cc1cc2n(n1)C(c1ccc(O)cc1)Nc1ccccc1-2 (stereo not drawn),AC50,[1],"20 µM [falling, partial curve]"
CCOc1ccc(CNC(=O)Cn2nc(C)n3cccc3c2=O)cc1,AC50,[1],"10 µM [falling, partial curve]"
Cc1ccc(NC(=O)CN(CCc2ccccc2)S(=O)(=O)c2ccccc2)c(C)c1,AC50,[1],"39.8 µM [falling, single point]"
COc1cc(NC(=O)c2noc3c2CCC3)c(OC)cc1Cl,AC50,[1],"20 µM [falling, partial curve]"
Cc1cccc(/N=C/c2c(O)c3ccccc3oc2=O)n1,AC50,[1],"5.01 µM [falling, partial curve]"
COCCN1Cc2cccc(C(=O)Nc3ccc(C)c(F)c3)c2C1=O,AC50,[1],"3.98 µM [rising, partial curve]"
Cc1cc(C)cc(NC(=O)C(=O)NCC(c2ccc3c(c2)OCO3)N2CCOCC2)c1 (stereo not drawn),AC50,[1],"1.58 µM [rising, partial curve]"
COc1ccc(N2CCN(CC(O)COc3ccc(C)cc3C)CC2)cc1 (stereo not drawn),AC50,[1],"25.1 µM [falling, single point]"
Cc1ccc(CNC(=O)CCS(=O)(=O)c2cc3c(cc2Cl)NC(=O)CO3)cc1,AC50,[1],"12.6 µM [falling, partial curve]"
CC1=C(c2ccc(C)cc2)S(=O)(=O)NC1=NCCCN1CCN(c2cc(C)ccc2C)CC1,AC50,[1],"1.26 µM [rising, full curve]"
Cc1ccc(Cl)cc1N1CCN(C(=O)CN2C(=O)COc3ccc(S(=O)(=O)N4CCC(C)CC4)cc32)CC1,AC50,[1],"7.94 µM [falling, full curve]"
O=C(NCc1ccc(Cl)cc1)c1ccc(NC(=O)N2CC3CCCN3c3ccccc32)cc1 (stereo not drawn),AC50,[1],"10 µM [falling, partial curve]"
O=C(NCc1ccc(F)cc1)c1cc(Sc2ccc(F)cc2F)nc2ccccc12,AC50,[1],"31.6 µM [falling, partial curve]"
O=S(=O)(NCc1ccccc1Cl)c1ccc(-c2cnc(C3CC3)o2)cc1,AC50,[1],"39.8 µM [falling, partial curve]"
COc1ccc(N2C(=O)CSC23C(=O)N(Cc2ccccc2F)c2ccccc23)cc1Cl (stereo not drawn),AC50,[1],"25.1 µM [falling, single point]"
COc1cccc(-c2nc3ccc(O)cc3c(=O)o2)c1,AC50,[1],"0.398 µM [falling, full curve]"
CCC1=Nc2cc(C(=O)NCc3ccccc3OC)ccc2Sc2ccc(Cl)cc21,AC50,[1],"5.01 µM [falling, partial curve]"
COCCNc1ncnc2c1cnn2-c1cc(Cl)ccc1C,AC50,[1],"15.8 µM [falling, partial curve]"
COc1ccc2[nH]c(=O)c(CN(CC3CCCO3)C(=O)Nc3ccc(F)cc3)cc2c1 (stereo not drawn),AC50,[1],"12.6 µM [falling, partial curve]"
C=C(C)COc1ccc(-c2nc(N)ncc2Oc2ccc(OC)cc2)c(O)c1,AC50,[1],"20 µM [falling, partial curve]"
CC(C)Cn1c(=O)c(C(=O)Nc2ccccc2S(N)(=O)=O)c(O)c2ccccc21,AC50,[1],"2.51 µM [falling, full curve]"
CCCS(=O)(=O)NCCc1csc2nc(-c3ccc(C)cc3)nn12,AC50,[1],"1.26 µM [rising, partial curve]"
CCOC(=O)c1ccc(S(=O)(=O)Nc2ccccc2-c2nnn(CC)n2)cc1,AC50,[1],"39.8 µM [falling, partial curve]"
Cc1ccccc1OCCCn1c(CCNC(=O)C2CCCCC2)nc2ccccc21,AC50,[1],"15.8 µM [falling, partial curve]"
CN(C(=O)Cn1c(=O)n(CCC(=O)NCc2ccc3c(c2)OCO3)c(=O)c2sccc21)c1ccccc1,AC50,[1],"5.01 µM [falling, full curve, poor fit]"
Cc1ccc(-n2ncc(C(=O)N3CCN(C4CCCCC4)CC3)c2C2CCN(C(=O)OC(C)(C)C)CC2)cc1C,AC50,[1],"15.8 µM [falling, partial curve]"
COc1ccc(CCNC(=O)c2nnn(-c3ccccc3OC)c2N)cc1OC,AC50,[1],"12.6 µM [falling, partial curve]"
CN(C)/C=C1\C(=O)c2ccc(N(C)C)nc2CC1c1ccccc1 (stereo not drawn),AC50,[1],"20 µM [falling, partial curve, poor fit]"
Cn1c(CN2CCOCC2)nc2cc(NC(=O)c3ccc(Cl)cc3)ccc21,AC50,[1],"7.94 µM [falling, partial curve]"
O=C1C(=O)c2ccccc2C(O)=C1C(C1=C(O)c2ccccc2C(=O)C1=O)c1ccc(Cl)cc1,AC50,[1],"1.26 µM [falling, partial curve]"
CC1CCCN(S(=O)(=O)c2ccc(NC(=O)Cn3nnc(-c4ccccc4F)n3)cc2)C1 (stereo not drawn),AC50,[1],"31.6 µM [falling, partial curve]"
CCOc1ccc(NC(=O)CC2C(=O)N(c3ccc(F)cc3)C(=O)N2CCc2sccc2C)cc1 (stereo not drawn),AC50,[1],"31.6 µM [falling, single point]"
COc1ccc(NC(=O)CN2C(=O)CSc3ccc(S(=O)(=O)N(C)C)cc32)cc1OC,AC50,measured here: IkB-luc green channel,"2 µM [rising, partial curve]"
same,AC50,measured here: control luc red channel,"1.58 µM [rising, full curve]"
Cc1nc(NC2=NCN(CCCN3CCOCC3)CN2)nc2c(C)cccc12,AC50,[1],"31.6 µM [rising, single point] [measured here: IkB-luc green channel]"
CCNS(=O)(=O)c1cc(-c2nnc(Nc3cccc(C(F)(F)F)c3)c3ccccc23)ccc1C,AC50,[1],"20 µM [falling, partial curve]"
Cc1ccc(C)c(NC(=O)CCS(=O)(=O)c2cccc3nsnc23)c1,AC50,[1],"3.98 µM [falling, single point]"
Cc1ccc(NC(=O)Cn2c(CCC(=O)O)ccc2-c2cccs2)cc1Cl,AC50,[1],"25.1 µM [falling, single point]"
Cn1c(=O)oc2cc(S(=O)(=O)N3CCCC(C(=O)N4CCN(c5ccc(Cl)cc5)CC4)C3)ccc21 (stereo not drawn),AC50,[1],"15.8 µM [falling, single point]"
Cc1ccc(C)c(N2CCN(C(=O)C3CCN(S(=O)(=O)c4ccc5[nH]c(=O)oc5c4)CC3)CC2)c1,AC50,[1],"10 µM [falling, partial curve]"
CCOC(=O)Nc1cccc(NC(=O)c2cc(OC)cc(OC)c2)c1,AC50,[1],"10 µM [falling, partial curve]"
Cc1cccc(N2CCN(C(=O)CCCn3c(=O)[nH]c4ccsc4c3=O)CC2)c1C,AC50,[1],"12.6 µM [falling, partial curve]"
Cc1c(NS(=O)(=O)CC23CCC(CC2=O)C3(C)C)c(=O)n(-c2ccccc2)n1C (stereo not drawn),AC50,[1],"39.8 µM [rising, single point]"
CCCCN(C(=O)Nc1ccc(Cl)cc1)C1CCN(C(C)=O)CC1,AC50,[1],"0.0631 µM [rising, full curve, poor fit]"
O=C(NC1CCCCC1)c1ccc(CSc2nc3ccncc3n2Cc2ccccc2)cc1,AC50,[1],"15.8 µM [falling, partial curve]"
Cc1ccc(NC(=O)Cn2c(=O)n(CCCC(=O)NCc3ccc4c(c3)OCO4)c(=O)c3ccccc32)cc1,AC50,[1],"7.94 µM [falling, full curve, poor fit]"
O=C(CSc1ccc(-c2nc3ccccc3[nH]2)cn1)N1CCN(C(=O)c2ccco2)CC1,AC50,[1],"25.1 µM [falling, partial curve]"
O=C(Cn1cc(C(=O)c2cccs2)c2ccccc21)NCc1cccs1,AC50,[1],"12.6 µM [falling, partial curve]"
CCc1ccc2oc(-c3ccc(NC(=O)c4cccc(Cl)c4Cl)cc3)nc2c1,AC50,[1],"3.16 µM [falling, full curve]"
CCOc1ccc(/C=C/c2nc(C#N)c(NCCCN(C)C)o2)cc1,AC50,[1],"15.8 µM [falling, single point]"
COC(=O)c1ccccc1NC(=O)Cn1c(=O)n(CCCC(=O)NCc2ccccc2Cl)c(=O)c2ccccc21,AC50,[1],"10 µM [falling, partial curve]"
O=C(COc1ccccc1Cl)N(Cc1cccc(F)c1)C1CCS(=O)(=O)C1 (stereo not drawn),AC50,[1],"15.8 µM [falling, partial curve]"
COc1ccccc1N1CCN(C(=O)c2cc3c(-c4ccccc4F)nn(C)c3s2)CC1,AC50,[1],"12.6 µM [falling, partial curve]"
Cc1ccc(-n2c(=O)c3c(cnn3C)n(CC(=O)Nc3cccc(C)c3)c2=O)cc1,AC50,[1],"3.16 µM [falling, full curve]"
COc1ccc2c(c1)CC(C(=O)NCCc1ccc(S(N)(=O)=O)cc1)CO2 (stereo not drawn),AC50,[1],"0.0794 µM [falling, full curve]"
O=C(O)c1cccc(COc2ccc(CO)cc2Cl)c1,AC50,[1],"1.58 µM [falling, full curve]"
O=C1c2ccccc2C(=O)N1CCCc1nc(-c2ccccn2)no1,AC50,[1],"10 µM [falling, partial curve]"
COc1cc2ccccc2cc1C(=O)N1CCN(c2nc3c(F)cc(F)cc3s2)CC1,AC50,[1],"39.8 µM [falling, single point]"
Cc1noc(C)c1-c1ccc2ncnc(NCc3cccnc3)c2c1,AC50,[1],"3.16 µM [rising, partial curve] [measured here: IkB-luc green channel]"

# 2 entries from above, set out differently:
smiles | measurement | setting | value
COc1ccc2[nH]c(=O)c(CN(CC3CCCO3)C(=O)Nc3ccc(F)cc3)cc2c1 (stereo not drawn) | AC50 | [1] | 12.6 µM [falling, partial curve]
C=C(C)COc1ccc(-c2nc(N)ncc2Oc2ccc(OC)cc2)c(O)c1 | AC50 | [1] | 20 µM [falling, partial curve]
